This is an account of results in publication PMC3838380, “Investigating the Allosteric Regulation of YfiN from Pseudomonas aeruginosa: Clues from the Structure of the Catalytic Domain” (PLoS ONE, 2013).

These are yes or no findings as the source states them, for the method shown.

The target of this experiment is YfiN_(GGDEF), shorter construct containing only the GGDEF domain of YfiN (Pseudomonas aeruginosa) (UniProt Q9I4L5). As to the kind of experiment: SEC; Superdex 75 10/300, 10 mM Tris-HCl pH 8.0, 100 mM NaCl, 2% glycerol, after the affinity chromatography step; both purified. (In general: SEC sorts molecules by how far they enter the pores of the column.)

B1: YfiN_(GGDEF), shorter construct containing only the GGDEF domain of YfiN (domain or fragment, UniProt Q9I4L5 232-435)
chain: ESWQARLQDENASLAHQAHHDSLTSLPNRAFFEGRLSRALRDANEHREQLAVLFIDSDRFKEINDRLGHAAGDTVLVNIAMRIRGQLRESDLVARLGGDEFAVLLAPLASGADALRIADNIIASMQAPIRLSDGSTVSTSLTIGIALYPEHADTPAALLHDADMAMYIAKRQARGSRRLAELNDPRILQEEKEIDSATPEAPPK
Regarding B1, the binding entry is listed as “no binding”.
